In publication PMC10247384 one finds binding data, which are given here for two substances.

Amino acid sequences for entries named in this document (tags omitted).
UniProt Q9H6L5: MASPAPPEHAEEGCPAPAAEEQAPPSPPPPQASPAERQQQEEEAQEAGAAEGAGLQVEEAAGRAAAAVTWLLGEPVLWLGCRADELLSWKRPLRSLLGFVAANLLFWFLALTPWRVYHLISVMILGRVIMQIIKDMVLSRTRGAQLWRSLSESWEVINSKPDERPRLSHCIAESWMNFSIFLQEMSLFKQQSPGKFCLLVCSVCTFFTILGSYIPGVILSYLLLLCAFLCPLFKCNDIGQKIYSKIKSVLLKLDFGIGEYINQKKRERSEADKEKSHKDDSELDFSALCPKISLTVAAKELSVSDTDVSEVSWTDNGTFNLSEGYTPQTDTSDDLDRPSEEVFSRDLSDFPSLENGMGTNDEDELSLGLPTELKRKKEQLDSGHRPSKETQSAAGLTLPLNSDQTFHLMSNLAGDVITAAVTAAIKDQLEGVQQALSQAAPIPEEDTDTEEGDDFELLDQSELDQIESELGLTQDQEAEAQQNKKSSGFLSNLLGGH

Assay [1] concerns the target green fluorescent protein (GFP)-tagged FAM134B (UniProt Q9H6L5). Briefly: co-IP; transiently expressed HA–ARL6IP1 or HA–ARL6IP1-7KR with GFP–FAM134B; in Fig. 4h with co-expressed AMFR–Flag or AMFR-RINGmut–Flag; immunoblot. In general terms: In western blotting, separated proteins are transferred to a membrane and probed.
For the next assay, the target named is HA–ARL6IP1-7KR (UniProt Q15041). Description: co-IP; HEK293T cells transfected with HA-tagged ARL6IP1 or FAM134B constructs; WT and variant proteins pulled down, the endogenous binding partner detected by immunoblot.

No constants are given. Whether binding was seen depends on the method and setting. In cells and extracts the contact can be indirect. A result given as binding can be weak or reduced; the word gives no strength.

On to HA–ARL6IP1-7KR (from UniProt Q15041), for which the binding entry in assay [1] is “binds”.

Consider “endogenous FAM134B (human cells) (from UniProt Q9H6L5 1-497)”, for which the binding result with HA–ARL6IP1-7KR is reported as “binds”.
